Measured values from patent US6124449.
For some assays here: The comparison behind a weaker result is the experiment's own reference, which may not be listed here. For some assays here: The exact form of at least one protein or probe is not confirmed.

Amino acid sequences for entries named in this document (tags omitted). Residues count along the entry.
UniProt P01137, 279-390: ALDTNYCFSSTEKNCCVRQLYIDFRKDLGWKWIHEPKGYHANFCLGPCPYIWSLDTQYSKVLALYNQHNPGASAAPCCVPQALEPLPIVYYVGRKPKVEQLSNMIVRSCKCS
UniProt P61812, 303-414: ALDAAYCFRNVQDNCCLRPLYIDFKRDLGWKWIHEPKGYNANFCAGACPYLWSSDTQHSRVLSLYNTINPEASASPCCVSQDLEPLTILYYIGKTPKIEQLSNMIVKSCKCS

Columns and labels:
[1] = target: TGF-beta1 (hTGF-beta1) (Homo sapiens) (UniProt P01137); assay: filter binding; conditions: 2'-F C and U, biphasic, purified recombinant protein
[2] = target: TGF-beta1 (hTGF-beta1) (Homo sapiens) (UniProt P01137); assay: activity in cells; conditions: 2'-F C and U, MLEC assay, purified recombinant protein
TGF-beta2 (Homo sapiens) = TGF-beta2 (Homo sapiens) (UniProt P61812); assay: SPR; conditions: 2'-F C and U; some binding, better than random RNA, slow on and off rates; lower than TGF-beta1; purified recombinant protein; label: 5'-biotin for BIAcore specificity

GGGAGGACGAUGCGGGACCCUUGUCUGCGAUUCAACUCGUAGGUUUUCUCACGUGCAGACGACUCGCCCGA [40-12]
Kd ([1]; Kd1 5.5±0.7 nM): 0.0007 nM

GGGAGGACGAUGCGGGACUCUUGUCUGCGAUUCAACUCGUAGGUCUUCUCACGUGCAGACGACUCGCCCGA [40-53]
Ki ([2]; no inhibition): > 1300 nM

GGGAGGACGAUGCGGGGGUUAUUGGGCGUCAACAUCCCCGAUUCUUUUCACGUCCAGACGACUCGCCCGA [40-03]
binding result (TGF-beta2 (Homo sapiens)): binds more weakly

GGGAGGACGAUGCGGUACAAGGUUACGCCGUCGGACCCUGCUGCCAACAUCCUCCCCAGACGACUCGCCCGA [40-20]
Ki ([2]; no inhibition though binds at nM): > 1300 nM

GGGAGGACGAUGCGGUGCCUUUAGCCUAGACCUUGUCUUCUGCCGCAGACGACUCGCCCGA [30-28]
Ki ([2]; no inhibition though binds): > 130 nM

GGGAGGACGAUGCGGUGCCUUUAGCCUGAGUAUACUGAUGUAUAUUCUCUGCCGCAGACGACUCGCCCGA [40-41]
Ki ([2]; no inhibition though binds): > 130 nM

GGGAGGACGAUGCGGUGCCUUUAGCUUAGGCAUUGCCUUCUGCCGCAGACGACUCGCCCGA [30-20]
Kd ([1]; Kd1 2.57±0.3 nM): 0.0007 nM

GGGAGGACGAUGCGGUGUCUUUAGCCUAGGUGAUUCCUUCUGCCGCAGACGACUCGCCCGA [30-10]
Ki ([2]; no inhibition though binds): > 300 nM

GGGAGGACGAUGCGGUUAAGGGCGUCAACACCGCUAUUAAACUUUCGCUUCCCAGACGACUCGCCCGA [40-31]
Kd ([1]; Kd1 8.4±2.8 nM): 0.0007 nM

GGGAGGACGAUGCGGUUAUGGGCGUCAACACCGCUAUUACAGUUUUCGCCUCCCCCAGACGACUCGCCCGA [40-60]
binding result (TGF-beta2 (Homo sapiens)): binds more weakly

GGGAGGACGAUGCGGUUAUGGGUGUCAACACCGCUAUUACAACUUUCGCCUCCCCAGACGACUCGCCCGA [40-79]
Kd ([1]; Kd1 0.6±0.1 nM): 0.0005 nM
